Measured data: PubChem BioAssay AID1053208 (Peter MacCallum Cancer Centre, 2014)
Here is a random part of about 17,000 reagents. 788 of all reagents (4.7%) count as active. 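Calls rest on z-score classes alone; an extra cut-off of viability at most 70% of control was not applied to them.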 Reagent sequences are not shown.

Purpose: 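Synthetic lethal interactions between gene loss and doxorubicin in osteosarcoma cells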 (primary screen)
Cell system: mouse osteosarcoma cells, early-passage culture from an engineered mouse model of fibroblastic bone tumour
Reagents: siRNA pool against mouse genes, 40 nM
Time to read-out: about 120 h (48 h before drug, then 72 h with drug)
Treatment: doxorubicin 100 nM for 72 h, roughly 30-40% inhibitory dose
Read-out: 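Luminescent ATP signal taken as viability with or without 100 nM doxorubicin for 72 h; mean of two wells set against non-targeting siRNA and turned into robust z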
Direction: viability z-score with doxorubicin and doxorubicin viability vs non-targeting: higher = more viable cells under doxorubicin; viability z-score without drug: higher = more viable cells with knock-down alone; z-score of drug to no-drug ratio: higher = less drug sensitisation by knock-down
Rule for the call: 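a pool counts as active when its viability z-score with doxorubicin is -2 or below and its z-score without drug lies between -2 and 2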

no.	gene	combined z-score class	viability z-score with doxorubicin	viability z-score without drug	z-score of drug to no-drug ratio	doxorubicin viability vs non-targeting	Call
1	Micu2	no change with or without drug	0	0.67	-0.34	0.94	inactive
2	Nbr1	no change with or without drug	0.56	-1.85	2.25	0.99	inactive
3	Cdh10	no change with or without drug	0.9	-0.17	1.24	1.02	inactive
4	Cst7	no change with or without drug	1.57	0.51	1.35	1.08	inactive
5	Rgs13	low cell count with doxorubicin only	-2.47	0	-2.47	0.72	active
6	Rnaset2b	no change with or without drug	-1.8	-0.51	-1.46	0.78	inactive
7	Osgepl1	low cell count without drug only	-1.57	-2.19	0	0.8	inactive
8	Lrr1	no change with or without drug	-0.79	-1.52	0.34	0.87	inactive
9	Cav1	no change with or without drug	-0.45	0.84	-0.9	0.9	inactive
10	Mrpl34	no change with or without drug	0.67	-0.84	1.46	1	inactive
11	Pigm	no change with or without drug	-0.67	1.18	-1.35	0.88	inactive
12	Vmn1r56	no change with or without drug	0.11	-0.34	0.45	0.95	inactive

Copied from the entries so far for reference:
no.	gene	combined z-score class	viability z-score with doxorubicin	viability z-score without drug	z-score of drug to no-drug ratio	doxorubicin viability vs non-targeting	Call
1	Micu2	no change with or without drug	0	0.67	-0.34	0.94	inactive
2	Nbr1	no change with or without drug	0.56	-1.85	2.25	0.99	inactive
3	Cdh10	no change with or without drug	0.9	-0.17	1.24	1.02	inactive
4	Cst7	no change with or without drug	1.57	0.51	1.35	1.08	inactive
5	Rgs13	low cell count with doxorubicin only	-2.47	0	-2.47	0.72	active

Next results:
no.	gene	combined z-score class	viability z-score with doxorubicin	viability z-score without drug	z-score of drug to no-drug ratio	doxorubicin viability vs non-targeting	Call
13	Arl5b	no change with or without drug	-0.34	0	-0.22	0.91	inactive
14	Rab33b	no change with or without drug	1.35	1.85	0.22	1.06	inactive
15	Pacc1	no change with or without drug	-0.45	0.51	-0.67	0.9	inactive
16	Hdac11	no change with or without drug	-0.34	0.84	-0.79	0.91	inactive
17	Zhx2	high cell count with and without drug	2.36	2.7	0.67	1.15	inactive
18	Pou1f1	no change with or without drug	-0.79	0	-0.67	0.87	inactive
19	Neil3	no change with or without drug	0.22	0.17	0.22	0.96	inactive
20	Gjc3	no change with or without drug	0.67	1.69	-0.34	1	inactive
21	Cfap100	no change with or without drug	-0.67	0.17	-0.67	0.88	inactive
22	Fam221b	no change with or without drug	-1.8	1.52	-2.59	0.78	inactive
23	Fli1	low cell count with doxorubicin only	-2.25	1.52	-3.04	0.74	active
24	Angpt1	no change with or without drug	-1.12	-1.18	-0.34	0.84	inactive
25	Pstpip2	no change with or without drug	1.12	0.51	0.9	1.04	inactive
26	Umps	no change with or without drug	1.24	1.01	0.67	1.05	inactive
27	BC049715	no change with or without drug	0.9	-0.34	1.35	1.02	inactive
28	Idh3a	no change with or without drug	-1.8	-0.51	-1.46	0.78	inactive
29	Lancl1	no change with or without drug	0	-0.17	0.22	0.94	inactive
30	Mlc1	no change with or without drug	0.56	0.34	0.45	0.99	inactive
31	Pml	no change with or without drug	-0.9	0.17	-0.9	0.86	inactive
32	Wnt7a	no change with or without drug	0.22	-1.52	1.57	0.96	inactive
33	Mgst2	no change with or without drug	-0.45	-0.51	0	0.9	inactive
34	Dcbld1	no change with or without drug	0.34	1.52	-0.56	0.97	inactive
